Results are given in words; binding and its absence hold for the method and conditions named. In cells and extracts the contact can be indirect. Some entries that bind do so weakly or less than the wild type. Tags and fused reporters may be left off the sequences shown.
Molecular target: ADRB3-mCherry (from pCMV-ADRB3-mCherry) (UniProt P13945)
Assay: co-IP; HEK293T cells transfected with plasmids (LipoMax), collected for coIP; bait, antibodies and buffers not described

Protein sequences, listed by entry. Tags and fused reporters are not part of them.
UniProt P13945: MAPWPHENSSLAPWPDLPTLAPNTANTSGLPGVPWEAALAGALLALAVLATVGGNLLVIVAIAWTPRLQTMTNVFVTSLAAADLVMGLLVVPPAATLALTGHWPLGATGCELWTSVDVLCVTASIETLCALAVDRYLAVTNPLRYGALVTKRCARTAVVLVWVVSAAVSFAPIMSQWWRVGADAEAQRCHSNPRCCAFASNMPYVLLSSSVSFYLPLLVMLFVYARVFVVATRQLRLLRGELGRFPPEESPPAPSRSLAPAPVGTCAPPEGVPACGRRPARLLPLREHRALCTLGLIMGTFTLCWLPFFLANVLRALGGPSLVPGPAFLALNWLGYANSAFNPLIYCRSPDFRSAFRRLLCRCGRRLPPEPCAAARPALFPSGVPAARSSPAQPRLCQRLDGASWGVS

binding: binds
B1: S100B-eGFP (from pCMV-S100B-eGFP) (protein, UniProt P04271 1-92)
chain: MSELEKAMVALIDVFHQYSGREGDKHKLKKSELKELINNELSHFLEEIKEQEVVDKVMETLDNDGDGECDFQEFMAFVAMVTTACHEFFEHE
